Assay results reported in patent US20190233519A1.
No constants are given. Whether binding was seen depends on the method and setting. Some entries that bind do so weakly or less than the wild type.

Amino acid sequences for entries named in this document (tags omitted). A change or cut given only in a name is not applied to a line headed by its entry.
UniProt P16410: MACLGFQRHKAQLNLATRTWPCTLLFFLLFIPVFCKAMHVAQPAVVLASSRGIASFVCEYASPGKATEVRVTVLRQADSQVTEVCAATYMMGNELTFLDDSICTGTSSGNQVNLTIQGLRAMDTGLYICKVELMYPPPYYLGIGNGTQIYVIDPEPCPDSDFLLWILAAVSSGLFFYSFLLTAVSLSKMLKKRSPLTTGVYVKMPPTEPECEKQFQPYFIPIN

Target: recombinant CTLA-4 ECD protein (Homo sapiens (Human)) (UniProt P16410)
Assay: screen of sdAb supernatants: ELISA on CTLA-4 ECD protein and FACS on CTLA-4 stable cell line

binding: binds
B1: AS07712 sdAb (VHH)
VHH: QIQLVESGGGSVQAGGSLRLSCAASAYTDRRYCMAWFRQAPGKEREGVATMDTDGSTRYADSVKGRFTISTDSAKNTLYLQMNSLEPEDTAMYYCAVGPNPRYCSGAINTRGAEHYFGYWGQGTQVTVSS
